Results are given in words; binding and its absence hold for the method and conditions named. Some binding calls cover weakened binding; strength is not graded here.
B1: 抗VEGFR-2抗体, 轻链可变区 SEQ ID NO 4, 重链可变区 SEQ ID NO 7 (scFv, V domains shown)
VH: EVQLVQSGGGLVKPGGSLRLSCAASGFTFSSYSMNWVRQAPGKGLEWVSSISSSSSYIYYADSVKGRFTISRDNAKNSLYLQMNSLRAEDTAVYYCARVTDAFDIWGQGTMVTVSS
VL: DIQLTQSPSSVSASVGDRVTLTCRASQSIKRWLAWYQQKPGKAPRLLIYAASTLQSGVPSRFSGGGSGTDETLTINSLQPEDFAIYYCQQANSFPPTFGPGTKVDIK
B2: 抗VEGFR-2抗体, 轻链可变区 SEQ ID NO 5, 重链可变区 SEQ ID NO 7 (scFv, V domains shown)
VH: B1 VH
VL: DVVMTQSPSSLSASVGDRVTITCRASQNINNYLNWYQQKPGKAPKLLIYAASTLQSGVPSRFSGSGSGTDFTLTITSLQPEDSATYYCQQYSRYPPTFGGGTKVEI
B3: 抗VEGFR-2抗体, 轻链可变区 SEQ ID NO 6, 重链可变区 SEQ ID NO 7 (scFv, V domains shown)
VH: B1 VH
VL: DIQLTQSPSSVSASVGDSVTITCRASQDISSWLAWYQQKPGEAPKLLIYAASLLQSGVPSRFSGSGSGTDFALTINSLQPEDFATYFCQQADSFPPTFGQGTRLEIK
B4: 抗VEGFR-2抗体, 轻链可变区 SEQ ID NO 1, 重链可变区 SEQ ID NO 7 (scFv, V domains shown)
VH: B1 VH
VL: EIVMTQSPATLSLSPGERATLSCRASQSVSSYLAWYQQKPGQAPRLLIYDSSNRATGIPARFSGSGSGTDFTLTISSLEPEDFATYYCLQHNTFPSTFGQGTKVEIK
B5: 抗VEGFR-2抗体, 轻链可变区 SEQ ID NO 2, 重链可变区 SEQ ID NO 7 (scFv, V domains shown)
VH: B1 VH
VL: DIQLTQSPSSVSASVGDRVTITCRASQGISSRLAWYQQKPGKAPKLLIYAASSLQTGVPSRFSGSGSGTDFTLTISSLQPEDFATYYCQQANRFPPTFGPGTKVDIK
B6: 抗VEGFR-2抗体, 轻链可变区 SEQ ID NO 3, 重链可变区 SEQ ID NO 7 (scFv, V domains shown)
VH: B1 VH
VL: DIQMTQSPSSVSASIGDRVTITCRASQGIDNWLGWYQQKPGKAPKLLIYDASNLDTGVPSRFSGSGSGTYFTLTISSLQAEDFAVYFCQQAKAFPPTFGGGTKVDIK

Amino acid sequences for entries named in this document (tags omitted). Residues count along the entry.
UniProt P35968, residues 20-764: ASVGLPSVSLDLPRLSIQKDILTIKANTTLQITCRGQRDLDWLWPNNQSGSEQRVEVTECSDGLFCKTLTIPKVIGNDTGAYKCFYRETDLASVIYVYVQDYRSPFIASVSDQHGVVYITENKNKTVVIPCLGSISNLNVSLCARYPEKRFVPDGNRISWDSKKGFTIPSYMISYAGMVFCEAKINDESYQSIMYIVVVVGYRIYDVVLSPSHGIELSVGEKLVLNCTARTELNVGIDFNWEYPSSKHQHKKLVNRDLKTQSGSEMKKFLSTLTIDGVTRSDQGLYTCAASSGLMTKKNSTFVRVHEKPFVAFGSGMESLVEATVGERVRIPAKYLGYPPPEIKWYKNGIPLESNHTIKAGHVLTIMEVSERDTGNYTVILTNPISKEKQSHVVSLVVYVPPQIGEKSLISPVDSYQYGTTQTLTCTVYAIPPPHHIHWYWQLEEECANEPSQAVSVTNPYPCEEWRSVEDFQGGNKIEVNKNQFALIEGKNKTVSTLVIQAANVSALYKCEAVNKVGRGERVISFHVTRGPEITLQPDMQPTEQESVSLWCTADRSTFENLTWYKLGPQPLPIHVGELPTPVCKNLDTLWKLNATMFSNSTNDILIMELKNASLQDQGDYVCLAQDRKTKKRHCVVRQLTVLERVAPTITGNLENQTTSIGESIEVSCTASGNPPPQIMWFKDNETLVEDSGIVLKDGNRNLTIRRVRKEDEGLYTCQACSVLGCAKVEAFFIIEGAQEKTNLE

Each binder was assayed against VEGFR-2 (UniProt P35968) (assay: phage panning on immobilised VEGFR-2 and mirrorball assay with biotinylated VEGFR-2).

binding, binds:
B1, B2, B3, B4, B5, B6

Source: CN105646710A
